The term AC50 denotes the concentration at which the activity in the assay is half-maximal. Low values mean activity at low concentration, high ones activity only at high concentration.

This note sets out measurements from PubChem BioAssay AID2685 (National Center for Advancing Translational Sciences (NCATS), 2010).

This is one part of the list. Shown are side measurements of this screen, not its main read-out; they come without a call. Most of these compounds were active or inconclusive in the main read-out, so they are no random draw. Words in brackets tell the shape of the fitted curve; partial curves, single points and poor fits give uncertain potencies.

A short description of the test: qHTS Assay for Lipid Storage Modulators in Drosophila S3 Cells.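 On cell number change: cells counted by Cell Tracker Red CMTPX staining in the red channel.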 Conditions: BODIPY lipid droplet fluorescence, 18-24 h; for cell number change: measured here: cell count max response, cells fed with added oleic acid. In a few lines: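 Drosophila S3 cells got compounds at several concentrations plus oleic acid (400 uM solution). Laser-scanning cytometry with 488 nm excitation read lipid droplets at 500-530 nm and cells at 575-640 nm. Percent activity was relative to 20 uM Triacsin C.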

Setting [1] is: measured here: lipid fluorescence (Fed channel) AC50, cells fed with added oleic acid.
Where [2] appears, read: measured here: cell number channel AC50, cells fed with added oleic acid.

Regarding `CCc1c(C)nc2c(-c3ccccc3)c(C)[nH]n2c1=O`, the cell number change was -16.7%. Also, under setting [1], the AC50 was 0.651 µM [falling, partial curve, poor fit].
Turning to `Cc1cnc(NC2=NCCC2)s1`, the cell number change is -3.84%. The AC50 under setting [2] was 1.03 µM [falling, full curve]. Also, the AC50 under setting [1] was 1.03 µM [falling, full curve].
Consider `CC(=O)Nc1ccc(NCC(=O)c2ccccc2)cc1`, for which the cell number change stood at 20.7%. For the same compound, the half-maximal activity concentration (AC50) under setting [1] is 29.1 µM [falling, single point].
With `CC(=O)c1cccc(S(=O)(=O)N(CCCO)Cc2cc3ccc(C)cc3[nH]c2=O)c1`, the half-maximal activity concentration (AC50) under setting [1] was 5.17 µM [rising, full curve, poor fit].
For the compound `CCCCC(=O)N(CCOC)c1nnc(-c2ccc(OC)cc2)s1`, the cell number change came out at 9.06%. In addition, under setting [1], the AC50 was 25.9 µM [rising, single point].
As to `CN(CCO)c1cc(Sc2nc3ccccc3s2)c2nonc2c1[N+](=O)[O-]`, the cell number change was -83.7%. For the same compound, the AC50 under setting [2] was 29.1 µM [falling, single point]. The AC50 under setting [1] was 29.1 µM [falling, single point].
`O=C(Nc1cccc(NC(=O)c2ccco2)c1)c1ccc2c(c1)OCCO2`: the cell number change is -8.2%. Under setting [1], the concentration at half-maximal activity (AC50) was 32.6 µM [falling, single point].
As for `COC(=O)c1sccc1Oc1ccc(Cl)cc1N1C(=O)CCC1=O`, the cell number change came to 10.3%.
As to `COc1ccccc1CNC(=O)CN(C)S(=O)(=O)c1ccc2c(c1)c(=O)n(C)c(=O)n2C`, under setting [1], the AC50 is 5.17 µM [falling, full curve].
With `Cc1ccc(-c2nc3ccccc3[nH]2)cc1NC(=O)/C=C/c1ccco1`, the cell number change was -24%. The AC50 under setting [1] was 4.11 µM [falling, partial curve].
In the case of `NS(=O)(=O)c1ccc(CCNC(=O)COc2ccc3c4c(c(=O)oc3c2)CCC4)cc1`, the cell number change came out at 34.3%. Moreover, the AC50 under setting [2] was 16.4 µM [rising, single point].
In the case of `CCOC(=O)N1CCN(C(=O)C2CCCN(S(=O)(=O)c3c(C)cc(C)cc3C)C2)CC1` (centres undefined), the cell number change was -22.4%.
Regarding `O=C(c1ccc(CS(=O)c2ccc(F)cc2)o1)N1CCN(C2CCCCC2)CC1` (centres undefined), the cell number change is -24.8%. Besides, under setting [1], the AC50 was 9.2 µM [rising, partial curve].
Turning to `Cc1nc(SC(C)C(=O)c2c(N)n(C)c(=O)n(C)c2=O)c2c(C)c(C)sc2n1` (centres undefined), the cell number change came out at 43.6%. For the same compound, under setting [2], the AC50 is 1.84 µM [rising, full curve, poor fit]. Moreover, under setting [1], the AC50 was 2.31 µM [rising, full curve].
For `O=C(Nc1ccccc1-c1ccccc1)C1CCC1`, the cell number change was 39.6%. Besides, under setting [1], the AC50 is 0.103 µM [rising, single point].
For the compound `COc1ccccc1NC(=O)COc1ccc2ccccc2c1`, the cell number change was -11.4%. The AC50 under setting [1] is 29.1 µM [falling, single point].
For the compound `C/C(=C\c1ccccc1)CN1CCN(C)CC1`, the cell number change is 32.3%. Moreover, the AC50 under setting [2] is 29.1 µM [rising, single point]. Also, under setting [1], the AC50 is 29.1 µM [rising, single point].
As for `CSCCC(NS(=O)(=O)c1ccc(Cl)cc1)C(=O)OCC(=O)c1ccc(F)cc1` (centres undefined), the cell number change is 155%. Also, the AC50 under setting [2] was 10.3 µM [rising, partial curve].
For the compound `CN(C)S(=O)(=O)c1cccc(C(=O)Nc2ccccc2N2CCCCC2)c1`, the cell number change is -2.52%.
Take `Cc1ccc([N+](=O)[O-])cc1NC(=O)CCc1ccccc1`: the cell number change amounted to 3.87%.
Consider `CC(=O)Nc1ccc(NC(=O)C(C)OC(=O)C2CCN(S(=O)(=O)c3ccccc3C(F)(F)F)CC2)cc1` (centres undefined), for which the cell number change was -25%. Moreover, under setting [1], the AC50 was 18.4 µM [rising, partial curve, poor fit].
Consider `CCCCN(C(=O)CSCC(=O)Nc1cccc(C)c1)c1c(N)n(Cc2ccccc2)c(=O)[nH]c1=O`, for which the cell number change is -19%. The AC50 under setting [1] was 6.51 µM [rising, single point].
For the compound `COc1cc(-c2nc(-c3ccc(NC(=O)c4ccc(Br)o4)cc3)no2)cc(OC)c1OC`, the cell number change is -145%. Moreover, the AC50 under setting [2] was 23.1 µM [falling, single point]. In addition, under setting [1], the AC50 is 0.82 µM [rising, single point].
`Cc1cccc(-n2c(SCc3cc(=O)n4ccsc4n3)nc3ccccc32)c1`: the AC50 under setting [1] was 13 µM [falling, partial curve].
`COc1cc2nc(CN3C(=O)c4ccccc4C3=O)oc(=O)c2cc1OC`: the cell number change is -7.62%.
Regarding `O=C(Nc1ccccc1F)c1ccc2ncsc2c1`, the AC50 under setting [1] is 6.51 µM [falling, single point].
Regarding `S=C(NCc1ccc2[nH]c3c(c2c1)CCCC3)Nc1ccccc1`, the cell number change was -17.4%. For the same compound, under setting [1], the AC50 is 0.58 µM [rising, full curve].
Regarding `O=C(NCc1ccccc1Cl)C1CC(=O)N(Cc2ccccc2)C1` (centres undefined), the cell number change is -7.51%.
Still for that read-out and setting: as for `O=C(/C=C/c1ccco1)NC(=S)Nc1ccccc1O`, the figure is 17.1%.
Take `O=C(COC(=O)c1cccnc1Cl)Nc1ccc2c(c1)OCO2`: the cell number change is 57.9%. Further, the AC50 under setting [2] was 29.1 µM [rising, single point].
For the compound `CCCCOc1ccc(N2C(=O)CC(N(O)c3ccccc3)C2=O)cc1` (centres undefined), the cell number change is -6.81%. Moreover, the AC50 under setting [1] was 0.116 µM [falling, full curve].
Consider `CC(=O)c1ccc(OCCCOc2cccc3cccnc23)cc1`, for which the cell number change is 0.351%. In addition, under setting [1], the AC50 is 29.1 µM [falling, single point].
Take `Cc1cccc(-n2ncc3c(N(C)C4CCCCC4)ncnc32)c1`: the cell number change turned out to be 0.794%. Also, under setting [1], the AC50 is 4.61 µM [rising, partial curve, poor fit].
As for `CCOc1ccc(NC(=O)CCNC(=O)C2CCN(S(=O)(=O)c3ccccc3)CC2)cc1`, the cell number change was -3.12%. Moreover, the AC50 under setting [2] is 0.164 µM [rising, single point].
For `COC1(OC)C(/C=C/c2ccc(Cl)cc2)C(C#N)(C#N)C1(OC)OC` (centres undefined), the cell number change was -58.2%. The AC50 under setting [2] was 11.6 µM [falling, partial curve]. Under setting [1], the AC50 is 13 µM [falling, partial curve].
Take `CN(C)S(=O)(=O)c1ccc(N2C(=O)CC2(/C=C/c2ccccc2)C(=O)NC2CCCC2)cc1` (centres undefined): the cell number change was -14.8%.
Consider `CC(=O)c1ccc(OCC(O)CN2CCN(Cc3ccccc3)CC2)cc1` (centres undefined), for which, under setting [1], the AC50 is 6.51 µM [rising, partial curve, poor fit].
Turning to `Cn1c(=O)c2c(SCc3cccnc3)nc(C3CC3)nc2n(C)c1=O`, the cell number change is -24.3%. Besides, the AC50 under setting [1] was 29.1 µM [falling, single point].
In the case of `Cc1cc(C(=O)N/N=C/c2ccc([N+](=O)[O-])s2)n[nH]1`, the cell number change is -25.8%. Besides, under setting [1], the AC50 was 0.58 µM [falling, partial curve, poor fit].
For the compound `O=C(NNC1=C(C(=O)C(F)(F)F)CCC1)c1ccccc1Cl`, the cell number change was -64.7%. Under setting [2], the AC50 was 29.1 µM [falling, single point].
Consider `CCCN1CCc2c(sc3nc(SCC)n(-c4ccc(OC)cc4)c(=O)c23)C1`, for which the cell number change came out at 11.1%.
As to `O=C(O)c1cn(-c2ccccc2)c(=O)c2ccccc12`, the cell number change is -9.72%. Further, the AC50 under setting [1] is 0.00517 µM [falling, full curve, poor fit].
For `COc1ccc(NC(=O)Cn2c(=O)cnc3ccccc32)cc1S(=O)(=O)N1CCCCC1`, the cell number change was 13%. Also, the AC50 under setting [1] is 8.2 µM [rising, partial curve].
In the case of `O=C(Nc1ccccn1)c1ccc2c(c1)S(=O)(=O)c1ccccc1C2=O`, the cell number change was found to be 5.45%. For the same compound, the AC50 under setting [1] was 4.11 µM [rising, full curve].
In the case of `C/C(CC1(O)C(=O)N(C)c2ccccc21)=N\O` (centres undefined), the cell number change came to 1.81%. For the same compound, the AC50 under setting [1] was 0.231 µM [falling, full curve, poor fit].
Turning to `O=C(O)CC(NS(=O)(=O)c1c(F)cc(F)cc1Br)c1ccccc1Cl` (centres undefined), the cell number change is -30.2%. In addition, the AC50 under setting [2] is 29.1 µM [falling, single point]. Further, under setting [1], the AC50 was 18.4 µM [falling, partial curve, poor fit].
Consider `COc1cc2[nH]c(C(=O)NCCc3ccccc3)cc2c(OC)c1OC`, for which the AC50 is 0.00411 µM [rising, full curve, poor fit] under setting [2] and 18.4 µM [rising, single point] under setting [1].
Consider `CC(C)c1ccc(N(C)C(=O)Cc2c(C(=O)O)n(C)c3ccccc23)cc1`, for which the cell number change is -15.1%. For the same compound, the concentration at half-maximal activity (AC50) under setting [1] is 0.58 µM [falling, single point].
Regarding `CCCC(c1c(C)n(C)n(-c2ccccc2)c1=O)c1c(C)n(C)n(-c2ccccc2)c1=O`, the cell number change worked out at 4.7%. In addition, the AC50 under setting [1] was 18.4 µM [rising, single point].
On to `CCOc1ccc(/C=N/NC(=O)c2cc(-c3ccccc3)nc3ccccc23)cc1O`, for which the cell number change is -30.6%. The AC50 under setting [2] is 0.00517 µM [falling, full curve, poor fit].
On to `CCc1ccccc1N(CC(=O)NCC1CCCO1)C(=O)CCC(=O)Nc1cc(C)on1` (centres undefined), for which the AC50 under setting [1] is 5.8 µM [falling, partial curve].
For the compound `Cc1ccc(S(=O)(=O)N(C(=O)c2ccncc2)c2ccc(OC(=O)c3ccncc3)cc2)c(C)c1`, the cell number change stood at 8.36%. Also, the AC50 under setting [1] was 0.184 µM [falling, partial curve].
In the case of `CC(C)CC1C(C#N)=C(N)SC(N)=C1C#N`, the cell number change was -3.36%. Under setting [1], the AC50 was 0.731 µM [rising, single point].
Consider `CC1CCCN(c2ccc(C(=O)NCC3CCCO3)cn2)C1` (centres undefined), for which the cell number change is -7.19%. In addition, the AC50 under setting [1] was 29.1 µM [rising, single point].
For `Cc1cc2c(NC(=O)Nc3ccc(C(C)(C)C)cc3)cccc2nn1`, the cell number change is -24.6%. Also, the AC50 under setting [1] is 29.1 µM [falling, single point].
For the compound `COc1ccc(C2C(C#N)=C(N)Oc3c2sc2nc(C)cc(C)c32)cc1` (centres undefined), the cell number change came out at 25.7%.
As to `CC(C)CN1C(=O)c2ccc(C(=O)Nc3ccncc3)cc2C1=O`, the cell number change is -32%. Under setting [2], the AC50 was 11.6 µM [falling, partial curve]. Moreover, the AC50 under setting [1] was 0.461 µM [falling, full curve, poor fit].
Turning to `COC(=O)CCc1n[nH]c(=O)[nH]c1=O`, the cell number change was -24.3%. Moreover, the AC50 under setting [1] was 0.461 µM [falling, full curve, poor fit].
For the compound `Oc1[nH]c(N=C2N=c3ccccc3=N2)c2ccccc12`, the cell number change was 56.9%. The concentration at half-maximal activity (AC50) under setting [2] was 8.2 µM [rising, partial curve, poor fit]. Also, the AC50 under setting [1] was 14.6 µM [falling, single point].
In the case of `COc1ccc(CCNC(=O)CC(c2ccccc2)c2cc(C)ccc2O)cc1OC` (centres undefined), the cell number change was -55.4%. In addition, the AC50 under setting [2] is 20.6 µM [falling, partial curve]. Further, the AC50 under setting [1] was 0.13 µM [falling, full curve, poor fit].
